Source: PubChem BioAssay AID1259254 (NCATS, 2017)
Screen: 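Finding genes that stop cells copying their DNA twice in one cycle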 (primary screen). System: human HCT116 colorectal cancer cells. Reagent: single siRNA against human genes. Duration: 3 days. Measurement: 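Nuclei stained with Hoechst and imaged; cell-cycle phase assigned by DNA content; G2 share scaled per plate, non-targeting siRNA 0%, GMNN siRNA 100%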. Direction: G2 robust z-score: higher = more G2 cells, more excess DNA replication. Call rule: 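An siRNA counts as active if its G2 robust z-score lies at least 5 MADs above the screen median; here such calls match roughly 38% of GMNN control or more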.
Here is one part, drawn at random, of about 59,000 reagents tested. Of all reagents, about 1,550 (2.6%) are marked active. 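G2 share is only a proxy for re-replication; each gene was hit by three separate siRNAs, and active genes were retested.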 The numbers tell different reagents against one gene apart. Further read-outs or replicates are left out here. The record does not give: the amount of reagent.

EIF4EBP1 #1: G2 robust z-score = -0.696; outcome = inactive
EIF4EBP1 #2: G2 robust z-score = -0.822; outcome = inactive
EIF4EBP1 #3: G2 robust z-score = -0.652; outcome = inactive
EXOSC9 (exosome component 9) #1: G2 robust z-score = 1.09; outcome = inactive
EXOSC9 (exosome component 9) #2: G2 robust z-score = 7.13; outcome = active
EXOSC9 (exosome component 9) #3: G2 robust z-score = 1.21; outcome = inactive
C3 (complement C3) #1: G2 robust z-score = 1.32; outcome = inactive
C3 (complement C3) #2: G2 robust z-score = 1.21; outcome = inactive
C3 (complement C3) #3: G2 robust z-score = -0.576; outcome = inactive
CEP162 (centrosomal protein 162) #1: G2 robust z-score = 1.56; outcome = inactive
CEP162 (centrosomal protein 162) #2: G2 robust z-score = -0.688; outcome = inactive
CEP162 (centrosomal protein 162) #3: G2 robust z-score = -0.77; outcome = inactive

Called active, among the entries above:
EXOSC9 (exosome component 9) #2: G2 robust z-score = 7.13; outcome = active

Further records follow:
NRIP2 (nuclear receptor interacting protein 2) #1: G2 robust z-score = 0.0999; outcome = inactive
NRIP2 (nuclear receptor interacting protein 2) #2: G2 robust z-score = 1.18; outcome = inactive
NRIP2 (nuclear receptor interacting protein 2) #3: G2 robust z-score = -0.241; outcome = inactive
PRRG4 (proline rich and Gla domain 4) #1: G2 robust z-score = 0.592; outcome = inactive
PRRG4 (proline rich and Gla domain 4) #2: G2 robust z-score = 0.234; outcome = inactive
PRRG4 (proline rich and Gla domain 4) #3: G2 robust z-score = -0.34; outcome = inactive
SCP2 #1: G2 robust z-score = 0.057; outcome = inactive
SCP2 #2: G2 robust z-score = 0.642; outcome = inactive
SCP2 #3: G2 robust z-score = 1.9; outcome = inactive
UPK1A (uroplakin 1A) #1: G2 robust z-score = -0.357; outcome = inactive
UPK1A (uroplakin 1A) #2: G2 robust z-score = -0.0301; outcome = inactive
UPK1A (uroplakin 1A) #3: G2 robust z-score = -0.704; outcome = inactive
EP400 (E1A binding protein p400) #1: G2 robust z-score = 2.94; outcome = inactive
EP400 (E1A binding protein p400) #2: G2 robust z-score = 1.36; outcome = inactive
EP400 (E1A binding protein p400) #3: G2 robust z-score = 3.33; outcome = inactive
HBD (hemoglobin subunit delta) #1: G2 robust z-score = -0.289; outcome = inactive
HBD (hemoglobin subunit delta) #2: G2 robust z-score = 0.166; outcome = inactive
HBD (hemoglobin subunit delta) #3: G2 robust z-score = -0.749; outcome = inactive
